Data taken from PMC7886694.

Legend:
[1] = biological target: T1, His-GlnR (Mycobacterium smegmatis) (UniProt A0R4C4); assay: EMSA; settings: EMSA: 2 ng biotin probe in 10 uL, Beyotime chemiluminescent kit, buffer not stated, recombinant protein, protein details: His, label: 5' biotin, probe letters rebuilt from the primers and the genome
T1 sequence (looked up, limits assumed): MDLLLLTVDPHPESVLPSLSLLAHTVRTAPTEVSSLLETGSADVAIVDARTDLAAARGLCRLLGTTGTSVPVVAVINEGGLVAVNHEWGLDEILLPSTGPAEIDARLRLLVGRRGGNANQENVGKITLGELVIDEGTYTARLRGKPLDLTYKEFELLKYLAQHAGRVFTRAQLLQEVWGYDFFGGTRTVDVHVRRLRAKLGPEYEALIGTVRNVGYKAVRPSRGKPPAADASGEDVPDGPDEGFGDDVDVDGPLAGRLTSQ

His-PrpR [2] = biological target: T2, His-PrpR (UniProt A0R6R5); assay: BLI; settings: 37 C, 200 mM KCl, 2 mM Mg2+, BLI: 10 mM HEPES pH 8.0, 2 mM MgCl2, 0.1 mM EDTA, 10 ug/ml BSA, 0.02% Tween-20 (running buffer), recombinant protein, protein details: His, label: 5' biotin, probe letters rebuilt from the primers and the genome
T2 sequence (looked up, limits assumed): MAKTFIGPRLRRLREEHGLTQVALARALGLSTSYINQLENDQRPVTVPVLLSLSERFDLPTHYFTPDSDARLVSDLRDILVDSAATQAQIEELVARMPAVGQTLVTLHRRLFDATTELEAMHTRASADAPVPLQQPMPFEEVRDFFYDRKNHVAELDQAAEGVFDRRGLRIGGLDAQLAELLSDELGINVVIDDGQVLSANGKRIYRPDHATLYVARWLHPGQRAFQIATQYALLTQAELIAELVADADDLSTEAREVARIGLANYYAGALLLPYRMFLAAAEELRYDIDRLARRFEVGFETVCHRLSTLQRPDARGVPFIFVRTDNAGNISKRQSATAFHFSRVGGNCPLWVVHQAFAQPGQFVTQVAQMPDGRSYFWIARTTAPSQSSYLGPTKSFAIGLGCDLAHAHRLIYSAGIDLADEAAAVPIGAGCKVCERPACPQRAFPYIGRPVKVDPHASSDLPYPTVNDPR

[3] = biological target: T1, His-GlnR (Mycobacterium smegmatis); assay: BLI; settings: 37 C, 200 mM KCl, 2 mM Mg2+, BLI: 10 mM HEPES pH 8.0, 2 mM MgCl2, 0.1 mM EDTA, 10 ug/ml BSA, 0.02% Tween-20 (running buffer), recombinant protein, protein details: His, label: 5' biotin, probe letters rebuilt from the primers and the genome
His-PrpR [4] = biological target: T2, His-PrpR; assay: EMSA; settings: 0.5-1.5 uM PrpR, displaced by 0.05-0.5 uM GlnR; EMSA: 2 ng biotin probe in 10 uL, Beyotime chemiluminescent kit, buffer not stated; recombinant protein; protein details: His; label: 5' biotin; probe letters rebuilt from the primers and the genome

| Sequence | binding result ([1]; 0.5 uM GlnR) | Kd (His-PrpR [2]) [nM] | Kd [3] [nM] | binding result (His-PrpR [4]) | binding result ([1]; 0.25-1.0 uM GlnR) |
| --- | --- | --- | --- | --- | --- |
| ATATGCGGTCGGCGAGGAGACGAAAGCCGTCGCCTGTCTCTTCTCGCTCTGAATCAATCACGTTTAACAGTACGGGCGTACTGACCTGCGAAAAGTGGCTACTCGCCGGTAGCTTCTGAACCGGTACAGCCATCATATTTCTTCACAATCTTCGCAAGTTAACGCACACGTTTCGCCAAAACCTGGCAAAGGAAACGGGTGGACCTGCGGTTATGTCATGTGCCATCGTCGGGTTAGCACACCAGTGAAGCTGCTGCGGTGTTAACAACCGCAGTGACTTAACAACCGAAGGAGCCGTCCAATGTCGACCGTTGGCACCCCGAAGTCCCCCGAGCAGATCCAGCACGACTGGGATCACAAC (double strand) [Picl a-site mutant] | binds more weakly | – | – | – | – |
| ATATGCGGTCGGCGAGGAGACGAAAGCCGTCGCCTGTCTCTTCTCGCTCTGAATCAATCACGTTTAACAGTACGGGCGTACTGACCTGCGAAAAGTGGCTACTCGCCGGTAGCTTCTGAACCGGTACAGCCATCATATTTCTTCACAATCTTCGCAAGTTAACGCACACGTTTCGCCAAAATTGGCAAAGGAAACGGGTGGACCTGCGGTTATGTCATGTGCCATCGTCGGGTTAGCACACCAGTGAAGCTGCTGCGGTGTTAACAACCGCAGTGACTTAACAACCGAAGGAGCCGTCCAATGTCGACCGTTGGCACCCCGAAGTCCCCCGAGCAGATCCAGCACGACTGGGATCACAAC (double strand) [Picl (Msm icl promoter)] | – | 171 | 33.7 | binds | binds |

The exact form of at least one protein or probe is not confirmed. For some assays here: Weaker means in comparison with the reference protein, sequence or condition of that experiment. Where a protein sequence is shown, tags need not be part of it.
